Assay results reported in the supplement of paper PMC10849652.
Some of the results follow.

By UniProt entry, the sequences of proteins in these tests, tags left out. Where a name states a change or a piece, a line headed by the entry shows the natural chain unless it says otherwise.
UniProt Q92879: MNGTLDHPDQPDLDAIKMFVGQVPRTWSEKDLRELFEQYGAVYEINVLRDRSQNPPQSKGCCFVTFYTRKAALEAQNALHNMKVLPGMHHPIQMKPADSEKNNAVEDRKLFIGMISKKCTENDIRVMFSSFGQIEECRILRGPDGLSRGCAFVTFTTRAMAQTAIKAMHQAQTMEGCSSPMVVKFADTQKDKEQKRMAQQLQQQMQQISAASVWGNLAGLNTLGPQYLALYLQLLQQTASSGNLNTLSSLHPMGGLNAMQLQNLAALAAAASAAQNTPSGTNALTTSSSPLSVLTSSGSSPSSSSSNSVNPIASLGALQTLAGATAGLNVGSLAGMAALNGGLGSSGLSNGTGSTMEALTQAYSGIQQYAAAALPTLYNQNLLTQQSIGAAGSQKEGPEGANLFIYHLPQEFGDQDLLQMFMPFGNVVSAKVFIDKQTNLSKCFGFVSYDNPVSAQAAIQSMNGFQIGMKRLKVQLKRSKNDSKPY
UniProt Q9H5V8, whole entry, looked up: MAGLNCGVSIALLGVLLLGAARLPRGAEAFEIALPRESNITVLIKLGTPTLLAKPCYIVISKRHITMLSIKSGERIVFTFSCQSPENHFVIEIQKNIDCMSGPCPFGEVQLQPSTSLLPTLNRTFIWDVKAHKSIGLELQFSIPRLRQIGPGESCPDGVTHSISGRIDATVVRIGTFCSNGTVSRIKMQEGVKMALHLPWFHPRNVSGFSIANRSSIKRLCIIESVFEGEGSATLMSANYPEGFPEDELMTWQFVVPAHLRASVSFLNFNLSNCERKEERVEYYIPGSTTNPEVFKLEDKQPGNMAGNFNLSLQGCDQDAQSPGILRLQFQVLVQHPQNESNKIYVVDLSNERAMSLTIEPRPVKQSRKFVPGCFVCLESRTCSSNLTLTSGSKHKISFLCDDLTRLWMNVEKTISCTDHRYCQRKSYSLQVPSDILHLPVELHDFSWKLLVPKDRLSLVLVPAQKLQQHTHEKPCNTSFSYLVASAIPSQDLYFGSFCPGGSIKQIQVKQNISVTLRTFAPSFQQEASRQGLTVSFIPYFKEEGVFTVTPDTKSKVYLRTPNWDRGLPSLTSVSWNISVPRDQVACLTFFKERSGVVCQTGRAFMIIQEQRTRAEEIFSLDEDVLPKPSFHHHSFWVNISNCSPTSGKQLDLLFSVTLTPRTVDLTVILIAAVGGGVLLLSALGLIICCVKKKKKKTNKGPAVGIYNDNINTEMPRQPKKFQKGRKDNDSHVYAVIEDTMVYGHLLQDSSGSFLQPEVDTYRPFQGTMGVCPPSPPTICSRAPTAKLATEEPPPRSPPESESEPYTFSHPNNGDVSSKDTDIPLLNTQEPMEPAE
UniProt Q5VV42: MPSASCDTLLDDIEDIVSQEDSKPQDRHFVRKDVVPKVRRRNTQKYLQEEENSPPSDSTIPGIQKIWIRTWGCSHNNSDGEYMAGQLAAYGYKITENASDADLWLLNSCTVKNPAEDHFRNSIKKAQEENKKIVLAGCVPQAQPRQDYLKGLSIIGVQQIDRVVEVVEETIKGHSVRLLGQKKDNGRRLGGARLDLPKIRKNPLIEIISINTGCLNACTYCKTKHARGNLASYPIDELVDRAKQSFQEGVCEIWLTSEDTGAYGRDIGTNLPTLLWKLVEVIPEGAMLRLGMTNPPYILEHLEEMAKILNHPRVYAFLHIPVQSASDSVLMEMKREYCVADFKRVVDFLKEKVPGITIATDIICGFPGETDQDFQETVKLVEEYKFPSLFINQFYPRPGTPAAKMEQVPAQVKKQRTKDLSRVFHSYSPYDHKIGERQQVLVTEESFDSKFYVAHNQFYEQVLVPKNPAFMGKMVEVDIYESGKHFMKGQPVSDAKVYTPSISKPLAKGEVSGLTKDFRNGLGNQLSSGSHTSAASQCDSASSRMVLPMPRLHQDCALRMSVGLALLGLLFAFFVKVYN
UniProt O14735: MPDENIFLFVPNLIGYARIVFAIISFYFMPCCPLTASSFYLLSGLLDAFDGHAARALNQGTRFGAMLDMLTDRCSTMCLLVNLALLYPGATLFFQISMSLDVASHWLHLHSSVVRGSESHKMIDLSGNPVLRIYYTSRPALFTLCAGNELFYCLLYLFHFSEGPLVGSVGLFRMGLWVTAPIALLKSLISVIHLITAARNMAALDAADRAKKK
UniProt Q9NZZ3: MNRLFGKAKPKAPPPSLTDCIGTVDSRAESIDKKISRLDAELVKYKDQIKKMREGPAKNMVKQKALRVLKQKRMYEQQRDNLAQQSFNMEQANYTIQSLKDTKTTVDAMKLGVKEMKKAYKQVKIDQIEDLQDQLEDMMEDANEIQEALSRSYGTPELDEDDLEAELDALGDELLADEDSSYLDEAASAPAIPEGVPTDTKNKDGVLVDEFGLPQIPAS
UniProt Q96FF9: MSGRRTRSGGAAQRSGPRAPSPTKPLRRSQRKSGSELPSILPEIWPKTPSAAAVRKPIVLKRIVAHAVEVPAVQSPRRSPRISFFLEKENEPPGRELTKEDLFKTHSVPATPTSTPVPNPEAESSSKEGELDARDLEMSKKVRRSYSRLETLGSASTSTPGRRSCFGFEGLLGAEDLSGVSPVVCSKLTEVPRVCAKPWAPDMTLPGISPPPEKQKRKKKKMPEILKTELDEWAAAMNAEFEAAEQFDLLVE
UniProt A8MT69: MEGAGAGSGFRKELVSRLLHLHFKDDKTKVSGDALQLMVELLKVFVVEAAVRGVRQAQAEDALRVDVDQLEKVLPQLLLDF
UniProt Q9UPN4: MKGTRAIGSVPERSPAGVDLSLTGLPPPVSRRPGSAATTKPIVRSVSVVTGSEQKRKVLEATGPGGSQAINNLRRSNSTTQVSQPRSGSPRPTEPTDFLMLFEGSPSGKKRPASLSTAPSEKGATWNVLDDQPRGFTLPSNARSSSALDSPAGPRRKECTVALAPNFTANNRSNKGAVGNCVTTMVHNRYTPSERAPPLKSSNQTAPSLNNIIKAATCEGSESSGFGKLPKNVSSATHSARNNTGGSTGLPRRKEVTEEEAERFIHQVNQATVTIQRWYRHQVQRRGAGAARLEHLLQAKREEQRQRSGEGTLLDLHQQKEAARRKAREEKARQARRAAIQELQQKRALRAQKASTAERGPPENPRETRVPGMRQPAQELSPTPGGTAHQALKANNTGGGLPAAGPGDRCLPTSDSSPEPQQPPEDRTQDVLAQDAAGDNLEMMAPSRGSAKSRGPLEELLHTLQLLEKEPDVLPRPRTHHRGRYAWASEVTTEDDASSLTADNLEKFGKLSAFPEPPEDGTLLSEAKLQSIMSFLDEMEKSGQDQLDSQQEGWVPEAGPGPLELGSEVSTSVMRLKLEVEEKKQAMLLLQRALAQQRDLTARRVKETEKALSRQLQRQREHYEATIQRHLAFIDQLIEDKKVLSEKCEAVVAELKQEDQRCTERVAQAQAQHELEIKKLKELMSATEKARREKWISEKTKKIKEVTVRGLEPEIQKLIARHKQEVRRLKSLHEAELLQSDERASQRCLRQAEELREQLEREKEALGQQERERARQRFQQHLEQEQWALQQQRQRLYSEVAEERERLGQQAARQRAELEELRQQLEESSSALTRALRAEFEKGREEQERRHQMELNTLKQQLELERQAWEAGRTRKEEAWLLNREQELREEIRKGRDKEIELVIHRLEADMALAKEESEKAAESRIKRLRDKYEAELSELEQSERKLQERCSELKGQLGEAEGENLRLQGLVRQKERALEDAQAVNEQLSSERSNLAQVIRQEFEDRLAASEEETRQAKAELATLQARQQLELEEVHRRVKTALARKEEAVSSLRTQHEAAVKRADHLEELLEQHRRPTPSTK
UniProt Q14004, whole entry, looked up: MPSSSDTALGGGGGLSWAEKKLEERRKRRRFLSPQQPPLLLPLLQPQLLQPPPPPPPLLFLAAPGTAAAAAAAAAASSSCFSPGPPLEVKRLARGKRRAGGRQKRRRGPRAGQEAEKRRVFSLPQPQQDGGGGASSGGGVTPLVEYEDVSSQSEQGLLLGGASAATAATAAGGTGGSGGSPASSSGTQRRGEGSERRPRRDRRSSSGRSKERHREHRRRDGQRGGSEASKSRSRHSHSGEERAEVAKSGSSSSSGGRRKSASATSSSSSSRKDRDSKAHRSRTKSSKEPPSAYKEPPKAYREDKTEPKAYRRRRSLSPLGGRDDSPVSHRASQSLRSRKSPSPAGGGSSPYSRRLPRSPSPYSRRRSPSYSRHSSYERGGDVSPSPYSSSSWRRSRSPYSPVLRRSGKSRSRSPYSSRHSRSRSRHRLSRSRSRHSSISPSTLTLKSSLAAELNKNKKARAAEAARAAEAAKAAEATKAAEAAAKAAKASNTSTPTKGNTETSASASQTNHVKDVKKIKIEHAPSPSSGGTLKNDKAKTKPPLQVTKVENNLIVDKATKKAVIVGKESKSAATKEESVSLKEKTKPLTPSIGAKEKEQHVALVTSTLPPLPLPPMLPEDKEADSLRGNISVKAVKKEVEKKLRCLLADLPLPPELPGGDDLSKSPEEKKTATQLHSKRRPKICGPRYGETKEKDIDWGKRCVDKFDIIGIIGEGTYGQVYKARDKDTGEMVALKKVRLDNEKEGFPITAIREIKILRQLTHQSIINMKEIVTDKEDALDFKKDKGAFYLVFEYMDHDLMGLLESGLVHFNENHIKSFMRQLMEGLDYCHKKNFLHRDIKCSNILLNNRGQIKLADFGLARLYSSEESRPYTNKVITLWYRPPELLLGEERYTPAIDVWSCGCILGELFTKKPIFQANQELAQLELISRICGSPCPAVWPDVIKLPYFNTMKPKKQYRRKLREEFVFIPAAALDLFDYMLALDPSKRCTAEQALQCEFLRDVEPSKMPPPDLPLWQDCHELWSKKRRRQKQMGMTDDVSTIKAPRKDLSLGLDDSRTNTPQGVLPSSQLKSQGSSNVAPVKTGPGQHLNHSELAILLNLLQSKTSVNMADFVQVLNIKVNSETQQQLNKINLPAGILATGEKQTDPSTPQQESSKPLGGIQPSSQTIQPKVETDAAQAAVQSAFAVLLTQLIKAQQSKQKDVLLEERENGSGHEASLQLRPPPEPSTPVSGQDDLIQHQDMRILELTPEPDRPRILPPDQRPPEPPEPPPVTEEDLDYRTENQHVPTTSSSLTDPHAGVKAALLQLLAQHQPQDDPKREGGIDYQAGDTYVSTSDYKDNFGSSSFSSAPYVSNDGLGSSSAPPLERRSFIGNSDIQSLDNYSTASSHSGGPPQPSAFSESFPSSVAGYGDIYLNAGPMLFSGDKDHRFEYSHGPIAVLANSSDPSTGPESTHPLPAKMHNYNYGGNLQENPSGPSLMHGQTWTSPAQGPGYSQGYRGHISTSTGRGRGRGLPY
UniProt Q9Y6K0: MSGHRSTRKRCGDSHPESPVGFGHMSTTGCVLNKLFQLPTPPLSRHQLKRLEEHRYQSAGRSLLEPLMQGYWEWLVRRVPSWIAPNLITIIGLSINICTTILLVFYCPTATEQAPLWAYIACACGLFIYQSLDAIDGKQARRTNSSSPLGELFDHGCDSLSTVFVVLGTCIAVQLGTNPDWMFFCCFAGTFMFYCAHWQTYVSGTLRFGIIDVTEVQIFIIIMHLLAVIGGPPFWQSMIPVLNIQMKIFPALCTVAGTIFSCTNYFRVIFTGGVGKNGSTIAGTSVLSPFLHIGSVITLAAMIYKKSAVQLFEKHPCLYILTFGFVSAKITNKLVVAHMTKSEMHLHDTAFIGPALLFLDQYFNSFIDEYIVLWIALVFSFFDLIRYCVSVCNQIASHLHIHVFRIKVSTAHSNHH
UniProt Q9NXV6: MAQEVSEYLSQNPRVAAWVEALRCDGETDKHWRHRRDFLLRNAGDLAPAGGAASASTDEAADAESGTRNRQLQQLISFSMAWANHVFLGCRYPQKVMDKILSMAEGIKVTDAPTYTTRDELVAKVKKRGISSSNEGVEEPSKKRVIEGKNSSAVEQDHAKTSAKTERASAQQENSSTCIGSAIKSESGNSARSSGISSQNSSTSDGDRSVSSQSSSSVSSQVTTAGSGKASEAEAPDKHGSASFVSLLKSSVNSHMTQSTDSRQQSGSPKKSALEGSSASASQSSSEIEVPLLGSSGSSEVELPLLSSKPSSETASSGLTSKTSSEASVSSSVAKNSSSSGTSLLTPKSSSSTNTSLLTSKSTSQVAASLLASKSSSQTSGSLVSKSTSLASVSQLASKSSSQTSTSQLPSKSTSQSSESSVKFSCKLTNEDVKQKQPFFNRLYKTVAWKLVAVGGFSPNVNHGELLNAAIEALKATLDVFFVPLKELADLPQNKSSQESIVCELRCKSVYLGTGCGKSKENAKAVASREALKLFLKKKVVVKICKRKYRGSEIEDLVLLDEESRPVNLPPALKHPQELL
UniProt Q9Y6H1: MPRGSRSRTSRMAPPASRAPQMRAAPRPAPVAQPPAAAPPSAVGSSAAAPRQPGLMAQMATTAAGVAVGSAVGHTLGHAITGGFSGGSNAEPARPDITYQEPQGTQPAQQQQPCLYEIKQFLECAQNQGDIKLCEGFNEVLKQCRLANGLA

Key:
Test in all cases: log2 fold change, soluble protein after heating vs DMSO (PISA); higher = thermal stabilisation; K562 cells, 10 uM, 30 min; active = over 0.2 and 3.5 SD of the protein, either way, in both replicates (recomputed)
[1] = compound: CS(=O)(=O)c1ccc(-c2cnc(N)c(C(=O)Nc3ccccc3)n2)cc1
Method in brief: (§1)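 K562 cells at 2×10^6 cells/mL were exposed to 10 μM compound for 30 min, then aliquots were heated for 3 min across 48°C-58°C, pooled, and extracted in PBS containing 0.5% NP-40 at 4°C. The supernatant after 21,000xg for 90 min was taken as soluble protein and measured by TMTpro 16plex LC-MS/MS with channel sums equalised. Thermal stability is reported relative to control samples, with values from duplicates. Fold changes are given on a log2 scale.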

[2] = compound: C[C@@H](Oc1cc(-c2cnn(C3CCNCC3)c2)cnc1N)c1c(Cl)ccc(F)c1Cl [crizotinib]
Method in brief: as §1

[3] = compound: C[C@@H]1COCCN1C2=NC(=NC(=C2)C3(CC3)S(=O)(=O)C)C4=C5C=CNC5=CC=C4
Method in brief: as §1

[4] = compound: C[C@H](C1=CC=C(C=C1)C(=O)NC2=C3C=CNC3=NC=C2)N
Method in brief: as §1

[5] = compound: C[C@H](Nc1ncnc2nc[nH]c12)c1cc2cccc(Cl)c2c(=O)n1-c1ccccc1 [duvelisib]
Method in brief: as §1

[6] = compound: Cc1cc(Nc2cc(CN3CCOCC3)c3nc(C)c(Cc4ccc(Cl)cc4F)n3n2)n[nH]1 [gandotinib]
Method in brief: as §1

[7] = compound: Cc1cc(Nc2cc(N3CCN(C)CC3)nc(Sc3ccc(NC(=O)C4CC4)cc3)n2)n[nH]1 [tozasertib]
Method in brief: as §1

[8] = compound: Cc1cc(SCc2sc(-c3ccc(C(F)(F)F)cc3)nc2C)ccc1OCC(=O)O
Method in brief: as §1

[9] = compound: Cc1ccc(-n2nc(C(C)(C)C)cc2NC(=O)Nc2ccc(OCCN3CCOCC3)c3ccccc23)cc1 [doramapimod]
Method in brief: as §1

[10] = compound: Cc1ccc(C(=O)N(CCCN)[C@@H](c2nc3cc(Cl)ccc3c(=O)n2Cc2ccccc2)C(C)C)cc1 [ispinesib]
Method in brief: as §1

[11] = compound: Cc1ccc(NC(=O)c2ccc(CN3CC[C@H](N(C)C)C3)c(C(F)(F)F)c2)cc1Nc1nccc(-c2cncnc2)n1 [bafetinib]
Method in brief: as §1

[12] = compound: Cc1cccc(CC(=O)N2CCc3c2ccc(-c2cn(C)c4ncnc(N)c24)c3F)n1
Method in brief: as §1

[13] = compound: Cc1cn(-c2cc(NC(=O)c3ccc(C)c(Nc4nccc(-c5cccnc5)n4)c3)cc(C(F)(F)F)c2)cn1 [nilotinib]
Method in brief: as §1

[14] = compound: Cc1nc(Nc2n[nH]c3c2CN(C(=O)N[C@H](CN(C)C)c2ccccc2)C3(C)C)c2sccc2n1
Method in brief: as §1

[15] = compound: Cc1nc(Nc2ncc(C(=O)Nc3c(C)cccc3Cl)s2)cc(N2CCN(CCO)CC2)n1 [dasatinib]
Method in brief: as §1

[16] = compound: Cc1ncc(-c2ccnc(Nc3ccc(S(C)(=O)=O)cc3)n2)n1C(C)C
Method in brief: as §1

[17] = compound: Cn1cc(-c2ccc3c(c2)CCN3C(=O)Cc2cccc(C(F)(F)F)c2)c2c(N)ncnc21
Method in brief: as §1

[18] = compound: Cn1cc(-c2ccc3nnc(C(F)(F)c4ccc5ncccc5c4)n3n2)cn1
Method in brief: as §1

[19] = compound: Cn1cncc1[C@@](N)(c1ccc(Cl)cc1)c1ccc2c(c1)c(-c1cccc(Cl)c1)cc(=O)n2C [tipifarnib]
Method in brief: as §1

[20] = compound: FC(F)(F)c1ccc(/C=C/c2nc(COc3ccc(CCCCn4ccnn4)cc3)co2)cc1 [mubritinib]
Method in brief: as §1

Target | log2 fold change [1] | log2 fold change [2] | log2 fold change [3] | log2 fold change [4] | log2 fold change [5] | log2 fold change [6] | log2 fold change [7] | log2 fold change [8] | log2 fold change [9] | log2 fold change [10] | log2 fold change [11] | log2 fold change [12] | log2 fold change [13] | log2 fold change [14] | log2 fold change [15] | log2 fold change [16] | log2 fold change [17] | log2 fold change [18] | log2 fold change [19] | log2 fold change [20]
CELF1 isoform 4 (UniProt Q92879) | inactive: -0.042 | inactive: -0.086 | inactive: 0.005 | inactive: 0.044 | inactive: -0.084 | inactive: 0.001 | inactive: 0.074 | inactive: 0.061 | inactive: -0.046 | inactive: -0.177 | inactive: 0.031 | inactive: 0.179 | inactive: -0.041 | inactive: -0.346 | inactive: -0.233 | inactive: 0.133 | inactive: 0.066 | inactive: 0.008 | inactive: -0.107 | inactive: -0.075
CDCP1 (UniProt Q9H5V8) | inactive: 0.032 | inactive: 0.09 | inactive: 0.005 | inactive: -0.049 | inactive: 0.032 | inactive: -0.048 | inactive: 0.039 | inactive: -0.024 | inactive: 0 | inactive: 0.036 | inactive: 0.015 | inactive: 0.011 | inactive: 0.016 | inactive: -0.014 | inactive: 0.03 | inactive: 0.035 | inactive: 0.035 | inactive: -0.047 | inactive: 0.032 | inactive: 0.102
CDKAL1 (UniProt Q5VV42) | inactive: 0.059 | inactive: -0.071 | inactive: 0.066 | inactive: 0.05 | inactive: -0.029 | inactive: 0.056 | inactive: -0.014 | inactive: 0.006 | inactive: 0.044 | inactive: -0.087 | inactive: 0.036 | inactive: 0.01 | inactive: -0.003 | inactive: -0.004 | inactive: -0.011 | inactive: -0.009 | inactive: 0.079 | inactive: 0.05 | inactive: 0.09 | inactive: 0.057
CDIPT (UniProt O14735) | inactive: 0.061 | inactive: 0.084 | inactive: 0.073 | inactive: -0.085 | inactive: 0.128 | inactive: -0.329 | inactive: 0.013 | inactive: -0.119 | inactive: 0.018 | inactive: -0.1 | inactive: -0.129 | inactive: -0.149 | inactive: 0.028 | inactive: -0.019 | inactive: -0.029 | inactive: 0.003 | inactive: -0.024 | inactive: 0.07 | inactive: 0.152 | inactive: 0.056
CHMP5 (UniProt Q9NZZ3) | inactive: 0.011 | inactive: 0.01 | inactive: 0.053 | inactive: -0.015 | inactive: 0.016 | inactive: 0.009 | inactive: -0.032 | inactive: -0.015 | inactive: -0.051 | inactive: 0.003 | inactive: -0.113 | inactive: -0.052 | inactive: 0.017 | inactive: -0.006 | inactive: 0.094 | inactive: -0.024 | inactive: -0.008 | inactive: 0.066 | inactive: 0.011 | inactive: 0.053
CDCA5 (UniProt Q96FF9) | inactive: -0.065 | inactive: 0.066 | inactive: 0.129 | inactive: -0.06 | inactive: -0.069 | inactive: -0.102 | inactive: -0.033 | inactive: 0.024 | inactive: -0.01 | inactive: -0.05 | inactive: 0.072 | inactive: -0.027 | inactive: 0.102 | inactive: -0.176 | inactive: 0.081 | inactive: -0.006 | inactive: -0.035 | inactive: -0.093 | inactive: 0.034 | inactive: -0.009
CHAF1B (UniProt Q13112) | inactive: -0.011 | inactive: 0.035 | inactive: 0.068 | inactive: -0.017 | inactive: 0.02 | inactive: -0.002 | inactive: -0.028 | inactive: -0.061 | inactive: 0.004 | inactive: 0.003 | inactive: -0.046 | inactive: -0.061 | inactive: 0.002 | inactive: 0.005 | inactive: 0.019 | inactive: -0.002 | inactive: 0 | inactive: 0.024 | inactive: 0.015 | inactive: 0.013
CENPX (UniProt A8MT69) | inactive: 0.007 |  |  |  |  |  |  |  |  |  |  |  |  |  |  |  |  |  |  | 
CEP131 (UniProt Q9UPN4) | inactive: -0.17 | inactive: -0.327 | inactive: -0.071 | inactive: 0.087 | inactive: -0.011 | inactive: 0.014 | inactive: 0.073 | inactive: 0.104 | inactive: 0.046 |  |  | inactive: -0.03 |  |  | inactive: -0.017 |  | inactive: -0.15 |  | inactive: -0.038 | inactive: 0.079
CDC42BPB (UniProt Q9Y5S2) | inactive: 0.068 | inactive: 0.056 | inactive: -0.031 | inactive: -0.149 |  | inactive: 0.029 |  | inactive: 0.005 | inactive: 0.01 | inactive: -0.148 | inactive: 0.22 | inactive: -0.034 | inactive: 0.062 | inactive: -0.118 | inactive: -0.029 | inactive: 0.106 | inactive: -0.054 | inactive: -0.017 | inactive: 0.094 | inactive: 0.177
CELF2 isoform 3 (UniProt O95319) | inactive: -0.107 | inactive: 0.098 | inactive: 0.006 | inactive: -0.038 |  | inactive: -0.027 |  | inactive: 0.102 | inactive: 0.05 | inactive: -0.066 | inactive: 0.014 | inactive: -0.005 | inactive: -0.001 | inactive: 0.013 | inactive: -0.005 | inactive: 0.079 | inactive: -0.022 | inactive: -0.059 | inactive: -0.062 | inactive: -0.006
CDK12 (UniProt Q9NYV4) | inactive: -0.056 | inactive: -0.054 | inactive: -0.362 | inactive: 0.376 |  | active: -1.11 |  | inactive: 0.051 | inactive: 0.299 | inactive: 0 | inactive: 0.298 | inactive: 0.079 | inactive: 0.136 | active: -0.631 | inactive: 0.23 | inactive: -0.301 | inactive: -0.484 | inactive: -0.123 | inactive: 0.156 | inactive: -0.043
CDK13 (UniProt Q14004) | inactive: -0.075 | inactive: -0.124 | inactive: -0.036 | inactive: 0.095 |  | active: -0.414 |  | inactive: 0.141 | inactive: -0.006 | inactive: 0.063 | inactive: 0.092 | inactive: -0.018 | inactive: -0.024 | inactive: -0.149 | inactive: -0.089 | inactive: -0.108 | inactive: -0.028 | inactive: -0.098 | inactive: 0.069 | inactive: 0.023
CEPT1 (UniProt Q9Y6K0) | inactive: 0.055 | inactive: -0.226 | inactive: 0.146 | inactive: 0.042 |  | inactive: -0.268 |  | inactive: 0.047 | inactive: 0.021 | inactive: -0.214 | inactive: -0.048 | inactive: 0.032 | inactive: -0.052 | inactive: 0.156 | inactive: -0.008 | inactive: 0.044 | inactive: 0.031 | inactive: -0.014 | inactive: -0.055 | inactive: -0.012
CDKN2AIP (UniProt Q9NXV6) | inactive: -0.053 | inactive: 0.01 | inactive: -0.132 | inactive: -0.004 |  | inactive: -0.012 |  | inactive: 0.021 | inactive: -0.019 | inactive: 0.048 | inactive: 0.034 | inactive: 0.021 | inactive: -0.021 | inactive: 0.034 | inactive: -0.041 | inactive: 0.015 | inactive: -0.049 | inactive: -0.012 | inactive: 0.046 | inactive: -0.011
CHCHD2 (UniProt Q9Y6H1) | inactive: 0 | inactive: 0.161 | inactive: -0.017 | inactive: -0.075 |  | inactive: -0.107 |  | inactive: -0.016 | inactive: -0.037 | inactive: 0.066 | inactive: -0.026 | inactive: -0.002 | inactive: 0.037 | inactive: 0.029 | inactive: 0.075 | inactive: -0.086 | inactive: 0.116 | inactive: -0.02 | inactive: -0.06 | inactive: 0.04
CEP250 (UniProt Q9BV73) | inactive: -0.023 | inactive: 0.115 | inactive: -0.024 | inactive: -0.062 | inactive: -0.082 |  | inactive: 0.126 | inactive: 0.171 | inactive: 0.182 | inactive: -0.089 | inactive: -0.438 |  | inactive: 0.073 | inactive: 0.013 | inactive: -0.092 | inactive: 0.057 | inactive: -0.033 | inactive: 0.021 | inactive: -0.119 | inactive: 0.099
CHAF1A (UniProt Q13111) | inactive: -0.015 | inactive: 0.058 | inactive: -0.058 | inactive: 0.15 |  | inactive: -0.035 |  | inactive: -0.04 | inactive: 0.025 | inactive: -0.098 | inactive: -0.154 | inactive: -0.04 | inactive: 0.053 | inactive: 0.047 | inactive: 0.016 | inactive: -0.074 | inactive: 0.006 | inactive: 0.002 | inactive: 0.015 | inactive: 0.034

Given as tab-separated lines: part of the list above.
Target	log2 fold change [1]	log2 fold change [2]	log2 fold change [3]	log2 fold change [4]	log2 fold change [5]	log2 fold change [6]	log2 fold change [7]	log2 fold change [8]	log2 fold change [9]	log2 fold change [10]	log2 fold change [11]	log2 fold change [12]	log2 fold change [13]	log2 fold change [14]	log2 fold change [15]	log2 fold change [16]	log2 fold change [17]	log2 fold change [18]	log2 fold change [19]	log2 fold change [20]
CHMP5 (UniProt Q9NZZ3)	inactive: 0.011	inactive: 0.01	inactive: 0.053	inactive: -0.015	inactive: 0.016	inactive: 0.009	inactive: -0.032	inactive: -0.015	inactive: -0.051	inactive: 0.003	inactive: -0.113	inactive: -0.052	inactive: 0.017	inactive: -0.006	inactive: 0.094	inactive: -0.024	inactive: -0.008	inactive: 0.066	inactive: 0.011	inactive: 0.053
CDCA5 (UniProt Q96FF9)	inactive: -0.065	inactive: 0.066	inactive: 0.129	inactive: -0.06	inactive: -0.069	inactive: -0.102	inactive: -0.033	inactive: 0.024	inactive: -0.01	inactive: -0.05	inactive: 0.072	inactive: -0.027	inactive: 0.102	inactive: -0.176	inactive: 0.081	inactive: -0.006	inactive: -0.035	inactive: -0.093	inactive: 0.034	inactive: -0.009
